From patent publication US10857167B2, “Use of oligosaccharide compositions to enhance weight gain” (Children's Hospital Medical Center, priority 2015, dated 2020)
The source gives many values for each of these; only a part stands here.

Tested on: distal small bowel gene expression
Test: RNA sequencing / transcriptional analysis of small bowel 56 days after ICR (2′-FL signature response)
Type: in vivo, mouse
Source text: Luminal small bowel contents were expressed into AllProtect Tissue Reagent (Qiagen Inc, CA). Bacterial DNA was extracted using the AllPrep DNA/RNA Mini Kit (Qiagen Inc, CA), according to kit instructions and prior to sequencing (described below). Small bowel tissue samples for RNA were placed into RNA Later (Life Technologies, NY). RNA extraction was accomplished following Qiagen RNeasy Plus Kit instruction (Qiagen Inc, CA). All nucleic acid samples were then stored at -80 Celsius until sequenced (described below). Transcriptional analysis was carried out on resected and harvested small bowel samples obtained from operated mice taken to 8 weeks. Murine RNA sequencing libraries were prepared from approximately 1.5 μg RNA using the TruSeq RNA Sample Preparation Kit (Illumina, Calif.) and sequenced using the HiSeq 2000 Sequencing System (Illumina, Calif.) with single-end 50 bp reads. Following removal of primers and barcodes, sequences were aligned to the mm10 genome using reference annotations from UCSC (Rosenbloom et al. (2015) Nucleic acids research 43: […]-681) (n=36,186 entities). Aligned reads were quantified and used to compute reads per kilobase per million mapped reads (RPKM); raw counts were then normalized using the DESeq algorithm and each harvested sample was baselined to its own resected sample. A filter was applied to the data, requiring at least three reads in all samples of at least one of the four experimental conditions (n=14,489 entities). The data discussed in this publication have been deposited in NCBI's Gene Expression Omnibus and are accessible through NCBI Gene Expression Omnibus (GEO) Series accession number GSE72590. Edgar et al. (2002) Nucleic acids research 30: 207-210. In order to characterize the impact of 2'-FL supplementation while accounting for the effect of ileoecal resection, a t-test was applied between resected and harvested samples within control and experimental animals. Significance was set at a p-value of ≤0.05 and a fold change of 3, which generated 2,576 differentially regulated entities across two comparisons. Gene set unions and intersections of the control and experimental gene sets were identified through Venn diagrams. From the master list, the gene list specific to animals supplemented with 2'-FL were removed in order to identify genes differentially regulated only by ICR (n=546 entities); this gene set characterizes the adaptive response. Further, the 2'-FL response (n=2,030 entities) was identified by removing the adaptive response signature described above from the master list, leaving only genes regulated by 2'-FL supplementation after ICR which were not found in the non-supplemented adaptive response. Heatmaps were generated using hierarchical clustering with the Pearson's Centered distance metric and the average linkage rule; both entities and samples were clustered. All genomic analyses described above were performed in Strand NGS (Strand Life Sciences, CA). Gene list functional enrichment was initially discovered using ToppFun, a member of the ToppGene Suite. Chen et al. (2009) Nucleic acids research 37: […]-311. No statistical correction was selected. Gene lists were further analyzed using ClueGO, a plugin for Cytoscape designed to decipher functionally grouped gene ontology and pathway annotation networks. Bindea et al. (2009) Bioinformatics 25: 1091-1093. At the time of data analysis, the annotation files were updated from sources to Jan. 1, 2015. “GO Term Fusion” was enabled to manage ontologic term redundancy and network specificity was set to medium. Results were restricted to pathways with p≤0.05 using Benjamini-Hochberg correction and Kappa scoring was set to 0.4. Biocyc annotations were assigned a rectangle, gene ontology biologic processes were assigned an ellipse, and […] annotations were assigned a diamond shape. No meaning was assigned to size or color. […]

Compound: C[C@@H]1O[C@@H](O[C@H]2[C@H](O[C@H]3[C@H](O)[C@@H](O)C(O)O[C@@H]3CO)O[C@H](CO)[C@H](O)[C@@H]2O)[C@@H](O)[C@H](O)[C@@H]1O (stereo partly shown) [2′-FL, 2′-fucosyllactose]
- Fold Change (Pre- to Post-op) (BC147527): 4.67
- Fold Change (Pre- to Post-op) (Bad): 3.481
- Fold Change (Pre- to Post-op) (Barx2): 3.852
- Fold Change (Pre- to Post-op) (Bbip1): 3.631
- Fold Change (Pre- to Post-op) (Bet1): 3.74
- Fold Change (Pre- to Post-op) (Bloc1s2): 5.046
- Fold Change (Pre- to Post-op) (Bola1): 3.165
- Fold Change (Pre- to Post-op) (Bola2): 3.525
- Fold Change (Pre- to Post-op) (Bri3): 3.393
- Fold Change (Pre- to Post-op) (Bud31): 3.553
- Fold Change (Pre- to Post-op) (C1ql3): 3.089
- Fold Change (Pre- to Post-op) (C1qtnf4): 3.302
- Fold Change (Pre- to Post-op) (C1d): 5.373
- Fold Change (Pre- to Post-op) (C87977): 8.094
- Fold Change (Pre- to Post-op) (C330013E15Rik): 3.026
- Fold Change (Pre- to Post-op) (C330018D20Rik): 4.28
- Fold Change (Pre- to Post-op) (C330022C24Rik): 3.284
- Fold Change (Pre- to Post-op) (Calml4): 3.699
- Fold Change (Pre- to Post-op) (Car4): 3.573
- Fold Change (Pre- to Post-op) (Casp4): 3.176
- Fold Change (Pre- to Post-op) (Casp6): 3.284
- Fold Change (Pre- to Post-op) (Cbr1): 3.381
- Fold Change (Pre- to Post-op) (Cbr3): 4.769
- Fold Change (Pre- to Post-op) (Ccdc28a): 3.21
- Fold Change (Pre- to Post-op) (Ccdc58): 3.208
- Fold Change (Pre- to Post-op) (Ccdc90b): 5.022
- Fold Change (Pre- to Post-op) (Ccdc107): 4.264
- Fold Change (Pre- to Post-op) (Ccdc122): 4.317
- Fold Change (Pre- to Post-op) (Ccdc142): 4.101
- Fold Change (Pre- to Post-op) (Cck): 3.246
- Fold Change (Pre- to Post-op) (Ccl7): 5.1269
- Fold Change (Pre- to Post-op) (Ccl8): 6.2504
- Fold Change (Pre- to Post-op) (Ccl12): 3.183
- Fold Change (Pre- to Post-op) (Ccl20): 9.28
- Fold Change (Pre- to Post-op) (Ccng2): 3.524
- Fold Change (Pre- to Post-op) (Cd302): 3.702
- Fold Change (Pre- to Post-op) (Cd3d): 3.077
- Fold Change (Pre- to Post-op) (Cdkn2b): 3.539
- Fold Change (Pre- to Post-op) (Ceacam10): 3.159
- Fold Change (Pre- to Post-op) (Cela1): 3.912
- Fold Change (Pre- to Post-op) (Cenpa): 3.183
- Fold Change (Pre- to Post-op) (Cenpw): 3.139
- Fold Change (Pre- to Post-op) (Cetn2): 3.03
- Fold Change (Pre- to Post-op) (Cetn3): 3.532
- Fold Change (Pre- to Post-op) (Chac2): 6.017
- Fold Change (Pre- to Post-op) (Chchd1): 4.681
- Fold Change (Pre- to Post-op) (Chchd2): 3.429
- Fold Change (Pre- to Post-op) (Chchd6): 3.848
- Fold Change (Pre- to Post-op) (Chpt1): 3.408
- Fold Change (Pre- to Post-op) (Chrna1): 3.295
- Fold Change (Pre- to Post-op) (Churc1): 3.8
- Fold Change (Pre- to Post-op) (Cisd1): 3.478
- Fold Change (Pre- to Post-op) (Cklf): 3.155
- Fold Change (Pre- to Post-op) (Clec4a4): 4.113
- Fold Change (Pre- to Post-op) (Clec11a): 4.118
- Fold Change (Pre- to Post-op) (Cmpk1): 3.834
- Fold Change (Pre- to Post-op) (Cnih1): 3.359
- Fold Change (Pre- to Post-op) (Coa3): 3.688
- Fold Change (Pre- to Post-op) (Coa6): 4.118
- Fold Change (Pre- to Post-op) (Commd1): 3.397
- Fold Change (Pre- to Post-op) (Commd2): 4.543
- Fold Change (Pre- to Post-op) (Commd6): 4.745
- Fold Change (Pre- to Post-op) (Commd8): 3.027
- Fold Change (Pre- to Post-op) (Coprs): 3.681
- Fold Change (Pre- to Post-op) (Coq3): 3.854
- Fold Change (Pre- to Post-op) (Cox4i1): 3.946
- Fold Change (Pre- to Post-op) (Cox6a1): 3.276
- Fold Change (Pre- to Post-op) (Cox6b1): 3.574
- Fold Change (Pre- to Post-op) (Cox6c): 3.634
- Fold Change (Pre- to Post-op) (Cox7a2): 4.02
- Fold Change (Pre- to Post-op) (Cox7a2l): 3.123
- Fold Change (Pre- to Post-op) (Cox7b): 4.932
- Fold Change (Pre- to Post-op) (Cox7c): 3.557
- Fold Change (Pre- to Post-op) (Cox14): 4.539
- Fold Change (Pre- to Post-op) (Cox16): 4.586
- Fold Change (Pre- to Post-op) (Cox17): 3.196
- Fold Change (Pre- to Post-op) (Cox19): 3.331
- Fold Change (Pre- to Post-op) (Crip1): 3.737
- Fold Change (Pre- to Post-op) (Cript): 4.107
- Fold Change (Pre- to Post-op) (Crot): 3.168
- Fold Change (Pre- to Post-op) (Csf2): 3.435
- Fold Change (Pre- to Post-op) (Cst6): 3.121
- Fold Change (Pre- to Post-op) (Ctla2b): 5.921
- Fold Change (Pre- to Post-op) (Ctxn3): 5.82
- Fold Change (Pre- to Post-op) (Cxcl16): 3.216
- Fold Change (Pre- to Post-op) (Cyb5): 3.219
- Fold Change (Pre- to Post-op) (Cycs): 3.837
- Fold Change (Pre- to Post-op) (Cyp2r1): 3.143
- Fold Change (Pre- to Post-op) (Cyp51): 4.805
- Fold Change (Pre- to Post-op) (Cystm1): 3.195
- Fold Change (Pre- to Post-op) (D130040H23Rik): 6.992
- Fold Change (Pre- to Post-op) (D330045A20Rik): 6.802
- Fold Change (Pre- to Post-op) (Dbi): 4.947
- Fold Change (Pre- to Post-op) (Dbndd2): 3.402
- Fold Change (Pre- to Post-op) (Dctpp1): 3.925
- Fold Change (Pre- to Post-op) (Dcun1d5): 3.581
- Fold Change (Pre- to Post-op) (Ddt): 3.272
- Fold Change (Pre- to Post-op) (Deb1): 4.009
- Fold Change (Pre- to Post-op) (Dkk4): 4.617
- Fold Change (Pre- to Post-op) (Dnajc15): 4.927
- Fold Change (Pre- to Post-op) (Dnajc19): 3.578
- Fold Change (Pre- to Post-op) (Dph3): 3.817
- Fold Change (Pre- to Post-op) (Dpm3): 3.46
- Fold Change (Pre- to Post-op) (Dpy30): 3.022
- Fold Change (Pre- to Post-op) (Dtd2): 3.143
- Fold Change (Pre- to Post-op) (Dusp14): 3.1
- Fold Change (Pre- to Post-op) (Dusp19): 3.608
- Fold Change (Pre- to Post-op) (Dynlt1a): 4.579
- Fold Change (Pre- to Post-op) (Dynlt1f): 3.889
- Fold Change (Pre- to Post-op) (E030024N20Rik): 3.148
- Fold Change (Pre- to Post-op) (Ebpl): 3.328
- Fold Change (Pre- to Post-op) (Echs1): 3.028
- Fold Change (Pre- to Post-op) (Eef1b2): 3.227
- Fold Change (Pre- to Post-op) (Eif4a2): 3.69
- Fold Change (Pre- to Post-op) (Eif3h): 3.016
- Fold Change (Pre- to Post-op) (Endog): 3.078
- Fold Change (Pre- to Post-op) (Ereg): 3.585
- Fold Change (Pre- to Post-op) (Erh): 3.201
- Fold Change (Pre- to Post-op) (Erich2): 5.146
- Fold Change (Pre- to Post-op) (Fabp2): 8.144
- Fold Change (Pre- to Post-op) (Fahd2a): 3.735
